This data set can be described thus: Spectral properties of light control elements: transmittance T (0 V) at λmax with no voltage applied. Conditions: cured light control element, composition at maximum dissolution amount, 20 μm spacer.

With `CCCCCC(C)CCC(=O)Oc1ccc(Sc2cccc3c2C(=O)c2cccc(Sc4ccc(OC(=O)CCC(C)CCCCC)cc4)c2C3=O)cc1` (centres unmarked) [Formula(E)], the “T (0 V)” value worked out at 43.8. For `CC(C)(C)c1ccc(Sc2cccc3c2C(=O)c2cccc(Sc4ccc5ccccc5c4)c2C3=O)cc1` [Formula(A)], the “T (0 V)” value is 54.0. Regarding `CCCCCCCCC(CCCCCC)C(=O)Oc1ccc(Sc2cccc3c2C(=O)c2cccc(Sc4ccc(OC(=O)C(CCCCCC)CCCCCCCC)cc4)c2C3=O)cc1` (centres unmarked) [No.2], the “T (0 V)” value turned out to be 12.8. As for `CCCCC(CC)C(=O)Oc1ccc(Sc2cccc3c2C(=O)c2cccc(Sc4ccc(OC(=O)C(CC)CCCC)cc4)c2C3=O)cc1` (centres unmarked) [No.3], the “T (0 V)” value stood at 8.8. For `CC(CC(=O)Oc1ccc(Sc2cccc3c2C(=O)c2cccc(Sc4ccc(OC(=O)CC(C)CC(C)(C)C)cc4)c2C3=O)cc1)CC(C)(C)C` (centres unmarked) [Formula(D)] the value was 44.1.

Source of the values: US11905417B2, “Anthraquinone compound, liquid crystal composition for dimming including said compound, and dimming element” (Nippon Kayaku Kabushiki Kaisha, priority 2020, dated 2024).
